PubChem BioAssay AID652259 | Drosophila RNAi Screening Center – 2013

- Aim: 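Identify new Wingless signalling regulators in fly cells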 (primary screen)
- Cells: Drosophila clone 8 imaginal disc epithelial cells
- Knock-down reagent: long dsRNA against Drosophila genes
- Conditions: pathway stimulated by co-transfected Wingless expression plasmid
- Measurement: 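Firefly luciferase from a tcf-site Wingless reporter, measured alongside co-transfected Renilla luciferase that tracks transfection; pathway stimulated by a Wingless plasmid; the firefly-to-Renilla ratio is not deposited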
- Direction: firefly reporter light: higher = more Wg reporter light, before normalisation; Renilla control light: higher = more transfected or surviving cells
- Active means: 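Strong candidates differ from their plate mean by at least two out of four per-plate statistical tests; weak candidates meet just one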
- Meaning of the calls: active = candidate regulator (raises or lowers reporter); inactive = not a candidate
The deposit covers about 22,000 reagents; this is a random part of those that have a named target and a result. In the full data, 233 (1.1%) are marked active. 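Light values are raw, unnormalised plate reads; the ratio scores behind the reporter calls were not deposited.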 Not given: the amount of reagent, the time to read-out, the dose of the treatment.

lectin-33A [DRSC02529] | firefly reporter light, replicate 1: 2557; firefly reporter light, replicate 2: 6154; Renilla control light, replicate 1: 849; Renilla control light, replicate 2: 3696; call: inactive
lectin-33A [DRSC22116] | firefly reporter light, replicate 1: 5.69e5; firefly reporter light, replicate 2: 5.79e5; Renilla control light, replicate 1: 2.86e5; Renilla control light, replicate 2: 3.41e5; call: inactive
CG13362 [DRSC17897] | firefly reporter light, replicate 1: 21740; Renilla control light, replicate 1: 14202; call: inactive
CG14252 [DRSC14747] | firefly reporter light, replicate 1: 6635; Renilla control light, replicate 1: 2461; call: inactive
rept [DRSC11388] | firefly reporter light, replicate 1: 14576; Renilla control light, replicate 1: 4196; call: inactive
Fem-1 [DRSC07322] | firefly reporter light, replicate 1: 5978; Renilla control light, replicate 1: 2017; call: inactive
Rcd-1 [DRSC19569] | firefly reporter light, replicate 1: 26964; Renilla control light, replicate 1: 12076; call: inactive
CG10887 [DRSC14277] | firefly reporter light, replicate 1: 20768; firefly reporter light, replicate 2: 7.81e5; Renilla control light, replicate 1: 7186; Renilla control light, replicate 2: 3.49e5; call: inactive
CG7518 [DRSC16253] | firefly reporter light, replicate 1: 5451; Renilla control light, replicate 1: 2548; call: inactive
Rlb1 [DRSC16826] | firefly reporter light, replicate 1: 13859; Renilla control light, replicate 1: 3738; call: inactive
Mhc [DRSC03367] | firefly reporter light, replicate 1: 3293; firefly reporter light, replicate 2: 5948; Renilla control light, replicate 1: 918; Renilla control light, replicate 2: 3304; call: inactive
CG7201 [DRSC10786] | firefly reporter light, replicate 1: 2150; firefly reporter light, replicate 2: 5696; Renilla control light, replicate 1: 1228; Renilla control light, replicate 2: 3025; call: inactive
CG4306 [DRSC10409] | firefly reporter light, replicate 1: 5211; Renilla control light, replicate 1: 2547; call: inactive
rho-7 [DRSC07304] | firefly reporter light, replicate 1: 7193; Renilla control light, replicate 1: 2871; call: inactive
CG10182 [DRSC14202] | firefly reporter light, replicate 1: 14730; Renilla control light, replicate 1: 8490; call: inactive
CG11231 (retired record) [DRSC17207] | firefly reporter light, replicate 1: 15713; Renilla control light, replicate 1: 12420; call: inactive
mge [DRSC08721] | firefly reporter light, replicate 1: 9127; Renilla control light, replicate 1: 3350; call: inactive

An excerpt from above, reduced to “firefly reporter light, replicate 1”.
CG4306 [DRSC10409] = 5211
rho-7 [DRSC07304] = 7193
